US9499553B2 (CHUGAI SEIYAKU KABUSHIKI KAISHA, priority 2013, dated 2016)
At least one compound was matched to its structure with a doubt left.

System: rat small-intestinal brush border membrane vesicles
Assay: Inhibitory effect on 33PO4 uptake into rat small-intestinal brush border membrane vesicles (rapid filtration method)
Assay type: biochemical
Details: 1 μM test compound; 33PO4 uptake into rat small-intestinal BBMVs, reacted for 60 seconds
Method: Test Example 1: Inhibitory Effect on ^33PO4 Uptake into Rat Small-Intestinal Brush Border Membrane Vesicles Brush border membrane vesicles (BBMVs) were prepared using the upper region of the small intestine of each Wistar female rat (4-5 weeks old). The preparation of BBMVs was performed according to the method of Murer et al. (Murer […]. Sodium/proton antiport in brush-border-membrane vesicles isolated from rat small intestine and kidney. 1976. J Am Soc Nephrol. 1998 January; 9 (1): 143-50). The ^33PO4 transport activity of the small-intestinal BBMVs was determined by the rapid filtration method. […] Then, ice-cold buffer C (110 mM NaCl, 1 mM KH2PO4, and 10 mM HEPES (pH 7.5)) was added to each reaction mixture, which was immediately suction-filtered through a Millipore filter. The filter was washed with buffer C, and each sample was then dissolved in a liquid scintillator. The amount of ^33PO4 uptake into BBMVs was measured using a liquid scintillation counter.

C[C@]12CCCN1N(Cc1ccc(F)c(Br)c1)C(=O)C(C(=O)Nc1cc(F)c(Br)c(F)c1)=C2O [Example 224]
Rate of uptake inhibition (%) (1 μM): 74%

C[C@]12CCCN1N(Cc1ccccc1Br)C(=O)C(C(=O)Nc1cc(F)c(Br)c(F)c1)=C2O [Example 216]
Rate of uptake inhibition (%) (1 μM): 76%

C[C@]12CCCN1N(Cc1ccc(C#CCN3CCOCC3=O)c(F)c1F)C(=O)C(C(=O)Nc1ccc(Br)c(F)c1)=C2O [Example 133]
Rate of uptake inhibition (%) (1 μM): 83%

C[C@]12CCCN1N(Cc1cc(F)ccc1Br)C(=O)C(C(=O)Nc1cc(F)c(Br)c(F)c1)=C2O [Example 217]
Rate of uptake inhibition (%) (1 μM): 83%
